The values that follow come from patent publication US20110123525A1 (THROMBOGENICS N V, published 2011).

Amino acid sequences for entries named in this document (tags omitted). A change or cut given only in a name is not applied to a line headed by its entry. Residues count along the entry.
UniProt P17948, residues 27-687: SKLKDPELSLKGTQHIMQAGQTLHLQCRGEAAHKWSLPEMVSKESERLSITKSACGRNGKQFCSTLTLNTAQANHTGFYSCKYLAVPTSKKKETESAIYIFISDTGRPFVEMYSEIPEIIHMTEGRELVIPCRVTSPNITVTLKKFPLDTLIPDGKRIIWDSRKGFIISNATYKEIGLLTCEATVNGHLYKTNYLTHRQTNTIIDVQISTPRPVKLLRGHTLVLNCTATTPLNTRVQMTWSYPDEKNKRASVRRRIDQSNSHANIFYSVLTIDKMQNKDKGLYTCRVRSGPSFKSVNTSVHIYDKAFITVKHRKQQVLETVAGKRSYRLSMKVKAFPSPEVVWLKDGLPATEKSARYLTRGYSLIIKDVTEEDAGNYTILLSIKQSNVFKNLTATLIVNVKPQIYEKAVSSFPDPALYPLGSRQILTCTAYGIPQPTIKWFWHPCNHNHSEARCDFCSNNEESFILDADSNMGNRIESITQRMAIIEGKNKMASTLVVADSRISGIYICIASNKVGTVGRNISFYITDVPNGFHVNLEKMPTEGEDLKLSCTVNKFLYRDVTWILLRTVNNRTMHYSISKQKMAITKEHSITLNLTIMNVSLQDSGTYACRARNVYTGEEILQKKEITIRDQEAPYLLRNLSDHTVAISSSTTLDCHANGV

These are yes or no findings as the source states them, for the method shown. Some entries that bind do so weakly or less than the wild type.

The target of the experiment is T1, recombinant human PlGF-2 (produced in Pichia) (human) (UniProt P49763).
T1 sequence (looked up): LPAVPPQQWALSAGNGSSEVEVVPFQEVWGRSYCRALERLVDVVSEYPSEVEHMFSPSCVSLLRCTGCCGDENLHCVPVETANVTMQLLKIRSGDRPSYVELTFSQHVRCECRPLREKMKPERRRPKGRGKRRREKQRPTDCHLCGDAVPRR
Kind of experiment: Biacore, rhuPlGF-2 (Pichia) immobilized on a CM5 chip, rhuFlt-1/Fc injected after buffer, 16D3 or 16D3 Fab. For orientation: SPR reads the build-up and loss of mass on a sensor chip optically.

As for “rhuFlt-1/Fc Chimera (R&D Systems) (from UniProt P17948 27-687) (Fc fusion)”, the binding entry is given as “binds”.
